The list is a part of this screen's results and no random one: it gathers tests that were run many times, whatever their T/C, doses with no T/C, and many T/C values between a quarter and a half above the control. Further doses and runs are listed elsewhere. T/C: endpoint of the treated group in % of that of the vehicle group. Some entries give survivors of the animals treated and no T/C: the source holds a T/C of zero for them, seemingly a mark for toxic or unscored doses. Some survivor counts are full or nearly so, which does not show that the dose was tolerated: survival well below the control is almost never listed, so the zero probably covers shortened survival too. Survivors were counted at the toxicity check, usually on the fifth day, unless a day is given; later deaths do not show. Schedule codes are those of the source, read here as Q, the interval in days (D) or hours (H), X, the number of doses. Some entries were tested several times; their values stand side by side, smallest first. Some molecules as drawn cover several salts, stereoisomers or complexes of the source; a dose is that of the sample tested. Where survival is the endpoint, this PubChem deposit counts one and a half times the control or more as active, and values a quarter to a half above the control carry no call in these data; other NCI protocols may use other cut-offs. Brackets with × give the number of equal values in this list. Some T/C values are followed by the survivors on the day toxicity was checked, most often the fifth; where none is given, no animal had died by that day.

This note sets out measurements from PubChem BioAssay AID256 (DTP/NCI, 2004).

This test relates to CD2F1 mice, L1210 leukemia ip, survival T/C. Description: NCI In Vivo Anticancer Drug Screen. Data for tumor model L1210 Leukemia (intraperitoneal) in CD2F1 (CDF1) mice. Particulars: higher T/C = longer survival. Put shortly:
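Compound-dosed mice with transplantable tumor versus matched vehicle controls; endpoint ratio T/C reported.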

The mark [1] stands for this setting: T/C endpoint: mean survival time, dose: 12.5 mg/kg/injection, schedule: Q01DX009 (ip), vehicle: saline with Tween-80.
The mark [2] stands for this setting: T/C endpoint: mean survival time, dose: 25.0 mg/kg/injection, schedule: Q01DX009 (ip), vehicle: saline with Tween-80.
[3] abbreviates: T/C endpoint: mean survival time, dose: 50.0 mg/kg/injection, schedule: Q01DX009 (ip), vehicle: saline with Tween-80.
Where [4] appears, read: T/C endpoint: mean survival time, dose: 200.0 mg/kg/injection, schedule: Q01DX005 (ip), vehicle: saline.
The mark [5] stands for this setting: T/C endpoint: mean survival time, dose: 400.0 mg/kg/injection, schedule: Q01DX009 (ip), vehicle: saline with Tween-80.
Setting [6] is: T/C endpoint: mean survival time, dose: 400.0 mg/kg/injection, schedule: Q04DX003 (ip), vehicle: saline with Tween-80.
Setting [7] is: T/C endpoint: mean survival time, dose: 400.0 mg/kg/injection, schedule: Q04DX003 (ip), vehicle: saline.
Setting [8] is: T/C endpoint: mean survival time, dose: 25.0 mg/kg/injection, schedule: Q04DX002 (ip), vehicle: saline with Tween-80.
Where [9] appears, read: T/C endpoint: mean survival time, dose: 100.0 mg/kg/injection, schedule: Q04DX002 (ip), vehicle: saline with Tween-80.

`CCOC(=O)c1[nH]c(-c2ccccc2)c(-c2ccccc2)c1-c1ccc(OC)cc1`: the survivor count is, setting by setting: (T/C endpoint: mean survival time, dose: 75.0 mg/kg/injection, schedule: Q01DX001 (ip), vehicle: saline) 6 of 6; (T/C endpoint: mean survival time, dose: 150.0 mg/kg/injection, schedule: Q01DX001 (ip), vehicle: saline) 6 of 6; (T/C endpoint: mean survival time, dose: 300.0 mg/kg/injection, schedule: Q01DX001 (ip), vehicle: saline) 6 of 6.
Consider `Nc1nc2n[nH]nc2c(=O)[nH]1`, for which the T/C is 134 % of control (T/C endpoint: mean survival time, dose: 3.13 mg/kg/injection, schedule: Q01DX009 (ip), vehicle: saline with Tween-80); 131 and 142 % of control (T/C endpoint: mean survival time, dose: 6.25 mg/kg/injection, schedule: Q01DX009 (ip), vehicle: saline with Tween-80); 140 % of control under setting [1]; 137 % of control (T/C endpoint: mean survival time, dose: 22.0 mg/kg/injection, schedule: Q01DX009 (ip), vehicle: saline with Tween-80); 126, 136, 138, 143, 158 % of control (T/C endpoint: mean survival time, dose: 25.0 mg/kg/injection, schedule: Q01DX005 (ip), vehicle: saline); 148 % of control under setting [2]. For the same compound, the T/C was 140 % of control (T/C endpoint: mean survival time, dose: 33.0 mg/kg/injection, schedule: Q01DX009 (ip), vehicle: saline with Tween-80); 131, 135, 137, 153 [5 of 6 alive], 162 % of control (T/C endpoint: mean survival time, dose: 50.0 mg/kg/injection, schedule: Q01DX005 (ip), vehicle: saline); 146 % of control (T/C endpoint: mean survival time, dose: 50.0 mg/kg/injection, schedule: Q01DX007 (ip), vehicle: other); 140 % of control under setting [3]; 136, 139, 143, 162, 184 % of control (T/C endpoint: mean survival time, dose: 100.0 mg/kg/injection, schedule: Q01DX005 (ip), vehicle: saline); 146 % of control (T/C endpoint: mean survival time, dose: 100.0 mg/kg/injection, schedule: Q01DX007 (ip), vehicle: other). The T/C runs as follows: (T/C endpoint: mean survival time, dose: 100.0 mg/kg/injection, schedule: Q01DX009 (ip), vehicle: saline sonified) 132 % of control; (T/C endpoint: mean survival time, dose: 100.0 mg/kg/injection, schedule: Q03DX003 (ip), vehicle: other) 125 % of control; under setting [4], 143, 148, 150, 167 % of control; (T/C endpoint: median survival time, dose: 50.0 mg/kg/injection, schedule: Q01DX009 (ip), vehicle: saline) 144 % of control; (T/C endpoint: median survival time, dose: 100.0 mg/kg/injection, schedule: Q01DX009 (ip), vehicle: saline) 144 % of control; (T/C endpoint: median survival time, dose: 200.0 mg/kg/injection, schedule: Q01DX009 (ip), vehicle: saline) 144 % of control. In addition, the survivor count reads like this: under setting [4], 3 of 6; (T/C endpoint: mean survival time, dose: 400.0 mg/kg/injection, schedule: Q01DX009 (ip), vehicle: saline sonified) 1 of 6; under setting [5], 2 of 6; (T/C endpoint: median survival time, dose: 400.0 mg/kg/injection, schedule: Q01DX009 (ip), vehicle: saline) 3 of 6.
Consider `C[S+](C)C`, for which the survivor count (T/C endpoint: mean survival time, dose: 100.0 mg/kg/injection, schedule: Q01DX009 (ip), vehicle: saline) is on record as 0 of 6.
Consider `CCCCCC(C)(C)N=C=S`, for which the survivor count under setting [6] is 0 of 6.
As to `COc1cccc2c1C(=O)c1c(O)c3c(c(O)c1C2=O)C[C@@](O)(C(C)O)C[C@@H]3OC1CC(N)C(O)C(C)O1` (some centres not stated), the T/C runs as follows: (T/C endpoint: mean survival time, dose: 1.8 mg/kg/injection, schedule: Q01DX009 (ip), vehicle: saline) 126 % of control; (T/C endpoint: mean survival time, dose: 3.0 mg/kg/injection, schedule: Q01DX009 (ip), vehicle: saline) 132 % of control; (T/C endpoint: mean survival time, dose: 5.0 mg/kg/injection, schedule: Q01DX009 (ip), vehicle: saline) 126 % of control; (T/C endpoint: mean survival time, dose: 5.0 mg/kg/injection, schedule: Q04DX003 (ip), vehicle: saline) 126 % of control; (T/C endpoint: mean survival time, dose: 8.0 mg/kg/injection, schedule: Q01DX009 (ip), vehicle: saline) 133 % of control; (T/C endpoint: mean survival time, dose: 8.0 mg/kg/injection, schedule: Q04DX003 (ip), vehicle: saline) 137 % of control. Also, the T/C is 146 % of control (T/C endpoint: mean survival time, dose: 13.3 mg/kg/injection, schedule: Q04DX003 (ip), vehicle: saline); 136 % of control (T/C endpoint: mean survival time, dose: 22.2 mg/kg/injection, schedule: Q04DX003 (ip), vehicle: saline); 134 % of control (T/C endpoint: mean survival time, dose: 37.0 mg/kg/injection, schedule: Q04DX003 (ip), vehicle: saline).
Consider `CNc1c2c(nc3ccccc13)CCCC2`, for which the survivor count by setting is: (T/C endpoint: mean survival time, dose: 10.0 mg/kg/injection, schedule: Q04DX003 (ip), vehicle: saline with Tween-80) 6 of 6; (T/C endpoint: mean survival time, dose: 20.0 mg/kg/injection, schedule: Q04DX003 (ip), vehicle: saline with Tween-80) 0 of 6.
Regarding `CC(C)N(CCCC#N)C(C)C`, the survivor count is reported as 0 of 6 (T/C endpoint: mean survival time, dose: 200.0 mg/kg/injection, schedule: Q01DX009 (ip), vehicle: saline) and 0 of 6 under setting [6].
As for `COc1cccc2c1C(=O)c1c(O)c3c(c(O)c1C2=O)CC(O)(/C(C)=N/NC(=O)CCCCC(=O)N/N=C(\C)C1(O)Cc2c(O)c4c(c(O)c2C(OC2CC(N)C(O)C(C)O2)C1)C(=O)c1c(OC)cccc1C4=O)CC3OC1CC(N)C(O)C(C)O1` (configuration not stated), the T/C (T/C endpoint: median survival time, dose: 1.5 mg/kg/injection, schedule: Q01DX009 (ip), vehicle: water) was 128 % of control; the T/C (T/C endpoint: median survival time, dose: 3.0 mg/kg/injection, schedule: Q01DX009 (ip), vehicle: water) was 126 % of control (2×); the T/C (T/C endpoint: median survival time, dose: 6.0 mg/kg/injection, schedule: Q01DX009 (ip), vehicle: water) was 128 and 137 % of control; the T/C (T/C endpoint: median survival time, dose: 12.0 mg/kg/injection, schedule: Q01DX009 (ip), vehicle: water) is 134 and 141 % of control. Also, the survivor count (T/C endpoint: median survival time, dose: 24.0 mg/kg/injection, schedule: Q01DX009 (ip), vehicle: water) was 4 of 6.
On to `NC(CCl)=NCC1C2CC3CC(C2)CC1C3` (configuration not stated), for which the survivor count (T/C endpoint: mean survival time, dose: 400.0 mg/kg/injection, schedule: Q01DX001 (ip), vehicle: Klucel (hydroxypropylcellulose) (HPC)) is 0 of 3.
For the compound `COCCC1(CN2c3ccccc3Sc3ccccc32)CCN(C)C1` (configuration not stated), the survivor count under setting [7] was 0 of 6.
On to `COC1OC(CO)C(n2cnc3c2c(=O)n(C)c(=O)n3C)C=C1NC(C)=O` (configuration not stated), for which the survivor count (T/C endpoint: mean survival time, dose: 50.0 mg/kg/injection, schedule: Q01DX005 (ip), vehicle: distilled water + Tween-80) is given as 3 of 3.
For the compound `COC1CCC2=C(C1)C(=O)CC1c3ccccc3CN21` (configuration not stated), the survivor count reads like this: (T/C endpoint: mean survival time, dose: 200.0 mg/kg/injection, schedule: Q04DX003 (ip), vehicle: saline with Tween-80) 1 of 6; under setting [6], 0 of 6.
Turning to `CCOC(=O)c1ccc(NC(=O)Nc2cc(Cl)c(Cl)cc2C)cc1`, the survivor count was 6 of 6 under setting [1]; 6 of 6 (T/C endpoint: mean survival time, dose: 12.5 mg/kg/injection, schedule: Q04DX003 (ip), vehicle: saline with Tween-80); 6 of 6 (T/C endpoint: mean survival time, dose: 25.0 mg/kg/injection, schedule: Q01DX001 (ip), vehicle: saline with Tween-80); 3 of 3 and 6 of 6 under setting [2]; 3 of 3 under setting [8]; 3 of 3 and 6 of 6 under setting [3]. Further, the survivor count (T/C endpoint: mean survival time, dose: 50.0 mg/kg/injection, schedule: Q04DX002 (ip), vehicle: saline with Tween-80) is given as 3 of 3; the survivor count under setting [9] is 3 of 3; the survivor count (T/C endpoint: mean survival time, dose: 200.0 mg/kg/injection, schedule: Q04DX002 (ip), vehicle: saline with Tween-80) was 3 of 3 and 6 of 6; the survivor count (T/C endpoint: mean survival time, dose: 400.0 mg/kg/injection, schedule: Q04DX002 (ip), vehicle: saline with Tween-80) is reported as 6 of 6. Moreover, the T/C was 86 % of control under setting [2]; 91 and 92 % of control (2×) under setting [8]; 87 and 88 % of control (2×) under setting [9].
As to `Clc1[nH]nc2ccccc12`, under setting [5], the survivor count is listed as 0 of 6.
As for `CN(C)N=Nc1c(F)c(F)cc(F)c1F`, the T/C (T/C endpoint: mean survival time, dose: 100.0 mg/kg/injection, schedule: Q01DX009 (ip), vehicle: saline with Tween-80) was 134 % of control.
As to `CCCCNCCCC`, the survivor count was 0 of 6 (T/C endpoint: mean survival time, dose: 200.0 mg/kg/injection, schedule: Q04DX003 (ip), vehicle: saline) and 0 of 6 under setting [7].
